B1: zinc metalloprotease FtsH (Sll1463), endogenous (protein, UniProt P73437 1-628)
chain: MAIKPQPQWQRRLASVLLWGSTIYLLVNLLAPALFRSQPPQVPYSLFIDQVEGDKVASVYVGQNEIRYQLKPEAEDEGKEKAAEGQILRTTPIFDLELPKRLEAKGIEFAAAPPAKNSWFGTLLSWVIPPLIFVGIWSFFLNRNNNGAPGGALAFTKSKAKVYVEGDSTKVTFDDVAGVEEAKTELSEVVDFLKFPQRYTALGAKIPKGVLLVGPPGTGKTLLAKAAAGEAGVPFFIISGSEFVELFVGAGAARVRDLFEQAKKQAPCIVFIDELDAIGKSRASGAFMGGNDEREQTLNQLLTEMDGFSAAGATVIVLAATNRPETLDPALLRPGRFDRQVLVDRPDLAGRLKILEIYAKKIKLDKEVELKNIATRTPGFAGADLANLVNEAALLAARNKQDSVTEADFREAIERVVAGLEKKSRVLSDKEKKIVAYHEVGHALVGAVMPGGGQVAKISIVPRGMAALGYTLQMPTEDRFLLNESELRDQIATLLGGRAAEEIVFDSITTGAANDLQRATDLAEQMVTTYGMSKVLGPLAYDKGQQNNFLGQGMGNPRRMVSDDTAKEIDLEVKEIVEQGHNQALAILEHNRDLLEAIAEKILEKEVIEGEELHHLLGQVQAPGTLVV
B2: probable Clp protease subunit Slr0165, endogenous (protein, UniProt P74467 1-202)
chain: MPIGVPSVPFRLPGSQYERWIDIYTRLSQERIIFLGQEVNDSIANRIVAFLLYLDSDDPSKPIYLYINSPGGSVTAGMAIYDTMQYIKAEVITICVGLAASMGAFLLASGAPGKRLALPHARIMIHQPMGGTGRRQATDIDIEAREILRIRQQLNEIMAQRTGQTVEKIAKDTDRDYFLSAAEAKEYGLIDKVIENSTMGNN
B3: transcription factor RbcR (Sll0998), endogenous (protein, UniProt P73123 1-345)
chain: MSDIPFTLDQLRILKAIASEGSFKRAADTLYVSQPAVSLQVQNLEKQLSVPLFDRGGRKAQLTEAGHLLLNYGEKIITLCQETCRAIEDLQNLQGGTLIVGASQTTGTYLLPRMIGMFRQQYPDVTVQLQVHSTRRTAWGVANGQVDLAIIGGEVPAELQETLTVLPYAEDELALILPVLHPLAQAETIQKEDLYKLKFISLDSQSTIRKVIDKVLSQGEIDTKRLKIEMELNSIEAIKNAVQSGLGAAFVSTTAIEKELEMNVLHIAPIKNVEIRRVLSVIINPNRYRSKASAAFIREVLPQFSTHPDALDPERLFANPYSSNNGDRQGDGKDGKGSIEIDSVT
B4: global nitrogen regulator NtcA (Sll1423), endogenous (protein, UniProt P33779 1-225)
chain: MDQSLTQDRPLAAVFRRLGSELMPPVVETFDRSKTIFFPGDPAERVYFLLKGAVKLSRVYEAGEEITVALLRENSVFGVLSLVTGQRSDRFYHAVAFTPVELLSAPIEQVEQALKEHPDLSLLMLQGLSSRILQTEMMIETLAHRDMGSRLVSFLLILCRDFGVPAPDGIRIDLKLSHQAIAEAIGSTRVTVTRLLGDLREGNMISITKKKITVHNPVALSQQFT
B5: unknown protein Ssl1972, endogenous (protein, UniProt P72925 1-93)
chain: MISIDLTLKYSPMPVSVQRKEKDGAEALYQTIVTAMQGDRPQVLELTCEKQTEKKVAIMSDQISAVIVSEKDGAASAGKVPGFAALGQIVNQG
B6: signal recognition particle protein Slr1531, endogenous (protein, UniProt P74214 1-482)
chain: MFDALADRLEDAWKKLRGQDKISESNIKEALQEVRRALLAADVNLQVVKGFIKDVEQKALGADVISGVNPGQQFIKIVYDELVNLMGESNVPLAQAEQAPTVILMAGLQGTGKTTATAKLALYLRKQKRSALMVATDVYRPAAIDQLKTLGQQIDVPVFDLGSDANPVEIARQGVEKAKELGVDTVLIDTAGRLQIDPQMMAELAEIKQVVKPDDTLLVVDAMTGQEAANLTHTFHEQIGITGAILTKLDGDTRGGAALSVRQISGQPIKFVGVGEKVEALQPFYPDRLASRILNMGDVLTLVEKAQEAIDVGDVEKLQNKILEATFDFDDFIKQMRFMKNMGSLGGLLKMIPGMNKLSSGDIEKGEKELKRTEAMISSMTTEERKNPDLLAKSPSRRRRIAQGSGHSETDVSKLITNFTKMRTMMQQMGMGGMPGGMPGMGAMPGMGGGMFGGQPGPGFRGYRGGGGKPKKKKKKKGFGQL
B7: nucleoid-associated protein ebfC (Slr1847), endogenous (protein, UniProt P73057 1-114)
chain: MAQGKGFGFGLGKIKELQEAFQKAQQVQEGAKVLQEELERMEIPGKSADGLVTVLMSGNQEPLSIEIDPSALEKGAEGLSASVTEAMKAAYAESTETMRSKMEELTSGLNLPGM

These are yes or no findings as the source states them, for the method shown. In cells and extracts the contact can be indirect. These calls come from enrichment with a bait or labelling near it, and not all partners need be listed. Tags and fused reporters may be left off the sequences shown.

The target of the assay is T1, Sll0528-TurboID (site-2 protease Sll0528 fused in-frame to TurboID, line P0528T) (Synechocystis sp. PCC 6803) (UniProt Q55518).
T1 sequence: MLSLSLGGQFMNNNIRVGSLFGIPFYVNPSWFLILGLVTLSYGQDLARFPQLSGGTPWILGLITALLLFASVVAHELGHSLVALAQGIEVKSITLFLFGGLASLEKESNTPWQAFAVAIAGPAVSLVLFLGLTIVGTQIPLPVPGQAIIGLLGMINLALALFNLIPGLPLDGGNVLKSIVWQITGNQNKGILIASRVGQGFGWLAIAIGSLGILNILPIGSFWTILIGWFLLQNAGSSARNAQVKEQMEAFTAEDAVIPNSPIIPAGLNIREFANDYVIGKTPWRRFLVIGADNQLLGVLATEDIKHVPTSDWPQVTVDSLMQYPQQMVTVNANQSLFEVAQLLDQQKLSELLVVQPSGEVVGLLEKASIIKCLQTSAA
The assay is described as follows: proximity labelling; Sll0528-TurboID under its native promoter in living Synechocystis line P0528T, without or with 30 min of 90 mM NH4Cl; 500 uM biotin, 15 min, room temperature; biotinylated proteins enriched on a streptavidin column and identified by 4D label-free LC-MS/MS; background control: soluble TurboID in line TBYPC.
Turning to B1, the binding entry is listed as “binds”. With B2 the entry was “binds”; with B3, “binds”; with B4, “binds”. Take B5: the binding result was “binds”.

Take B6: the binding entry is given as “binds”. For B7 the value was “binds”.
